Laboratory results published in PubChem BioAssay AID1508600 (Functional Genomics Laboratory (NCATS/FGL), 2020).
In all, about 53,000 sequences went through this assay and about 3,700 (7%) were called active.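 The calls were made as follows: active = gene knockdowns whose robust z-score for IL-1 alpha signal is at least 2 or at most -2, so actives lie on both sides; inactive = the rest.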 The list shows a part of the results.

assay: Components of the Cytosolic LPS Sensing Pathway: Gene Identification via Genome-wide siRNA Screen; conditions: RAW264.7 macrophages, IL-1a HTRF, actives lie on both sides, screened at 100 nM (by protocol), cells primed 5 h with Pam3CSK4 first;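 also: robust z of the log signal after scaling to non-targeting control siRNA wells of the plate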
In short: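 Using IL-1a HTRF as read-out, the screen measured release from RAW264.7 cells after 48h siRNA knockdown (100 nM), 5 h Pam3CSK4 priming and 24 h cytosolic LipidA. Values were expressed relative to negative-control wells as robust z-scores.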

Row | Sequence | z-score
1 | GGAGAUCGAUGGAGACUUCTT against Sftpa1 | inactive: -0.773
2 | GGAUUUAGUGUAAUGCCAATT against Pfn4 | inactive: -0.354
3 | CGAGCACACUUUUGAAGAATT against Gm5089 | inactive: 1.33
4 | GCCAGUAUGCAAAGACUCATT against Gm4788 | inactive: 0.806
5 | GGACACAGACAUGUAUAAUTT against Sorbs2 | inactive: -0.174
6 | GCAGCAAGCUUAAUUACAGTT against Lins1 | inactive: -1.32
7 | CGGUUACAGGUGAAAUCCUTT against Sval1 | inactive: -1.36
8 | GGUAAUUAGUGAAAUGGUUTT against Pum2 | inactive: -1.32
9 | CCCAGUUGGUGUUUAUAUATT against Ppp3cb | inactive: 0.115
10 | CGAUUUGGCCUUGAUGGGUTT against Wtip | inactive: 0.116
11 | GCGGUUAGUGAAAGAAGGATT against Pptc7 | inactive: 0.132
12 | GCAGACCAUAUUACAAGUUTT against Herc3 | inactive: 1.04
13 | GCAAUGCAUGAAGACUCGUTT against Ecsit | inactive: 0.835
14 | GCAGAUGAUACCUGGGCAATT against Mtmr14 | active: 2.68
15 | CCAAGAGUUGUCAAUAUAATT against Crisp3 | inactive: 0.768
16 | GGCUAUAAAGAAGAGUCUGTT against Adhfe1 | inactive: -0.572
17 | GCUAACAUGUGUGCAGACCTT against Csf2 | inactive: -0.185
18 | GCUAAGUACAACUUCACAATT against Olfr303 | inactive: -0.918
19 | GCCAUGGAAAAUUUCCUCCTT against Olfr357 | inactive: 0.52
20 | CGCACAGUACCUUUACCUCTT against A630052C17Rik | inactive: 0.514
21 | CCUCCCAAGUAAAUUAUUATT against Slc16a12 | inactive: 1.99
22 | GCAAGUCCGGAUGUAAGGATT against Ccdc42 | inactive: -0.0917
23 | GGUUUGUAGAGGCAUCAAGTT against Snph | inactive: -0.13
24 | GGUAUCAGAGACAACCAAATT against Chad | inactive: 0.0541
25 | CGCCUAAGAAUAUGAAAAATT against Nek3 | inactive: -0.2
26 | GCAACCUAUGUCUGCAACUTT against Spink7 | inactive: -1.11
27 | GGAAGUAUCUGGAAAGGGATT against Usp2 | inactive: 0.56

Exported in markdown: entries from further up.

| Row | Sequence | z-score |
| --- | --- | --- |
| 3 | CGAGCACACUUUUGAAGAATT against Gm5089 | inactive: 1.33 |
| 11 | GCGGUUAGUGAAAGAAGGATT against Pptc7 | inactive: 0.132 |

(cont.)

Row | Sequence | z-score
28 | GCUGGACAUAUGGUCCAAATT against Med27 | inactive: 0.527
29 | GGAAACGAUGAAGAACAAATT against 4933427D06Rik | inactive: -0.714
30 | GGAGAGAAAAACACCUAUGTT against Prlr | inactive: 0.191
31 | GGUCUCAGGCUCAACUCAATT against Gm6116 | inactive: 0.856
32 | CCCUGUUUAACUAUUACAATT against Tmc2 | inactive: -1.05
33 | GGCAGGUUUUUGACAACUUTT against Fxyd4 | active: 3.2
34 | GGUGUCUUUACGUCUCCCATT against Neto1 | active: -2.56
35 | GCAAAUGCUGUCAGUGGGATT against Cd59b | inactive: -1.69
36 | CGAGGACAAAAAUACCGACTT against Supt6 | inactive: -1.51
37 | GCGCAAAGGGUUUGUUAAGTT against Mogat1 | inactive: -0.203
38 | GGUACAAAUCGAUUGUCAATT against Fdps | inactive: 0.288
39 | GGAAAAGAAGUGACCUGCUTT against Anapc4 | inactive: 0.228
40 | GCGAGAAGCUUUAGAACGATT against Ubxn1 | inactive: 0.255
41 | GGAGUCAAGUACGAUGUGATT against C8b | inactive: -0.0383
42 | GGUACAGAGCAAUAAGCAUTT against Mbd6 | inactive: -0.0683
43 | GCUGGUAUGGAUUGUUUCGTT against Ccng2 | inactive: 0.619
44 | GGCUGAUUAUCACAGCAAGTT against Ablim2 | inactive: 0.0677
45 | GGAGUCGAAUCUUCUCUAATT against Taco1 | inactive: -1.07
46 | GGUGGACAUGAGCAAAGUATT against Srrm1 | inactive: 1.54
47 | CAAACCUUGUUGCCAUGACTT against Olfr406 | inactive: 0.0688
48 | GCGGAAGUCGGAUUUUAUCTT against Kif1c | active: 3.01
49 | GGUGAAAUAUGUUAUCUGGTT against Copa | inactive: 0.467
50 | GGUCCUUUCCCAUAACCUGTT against Swap70 | inactive: -0.922
51 | GCUCCAAAUUAAAUUUUGCTT against Irf9 | inactive: 0.768
52 | GCUACUAUCUGGAGUCGUATT against Pycard | inactive: -0.51
53 | GGCUUAAGUGUGCAGCUACTT against B3gnt4 | inactive: -0.479
